Source: PubChem BioAssay AID1259308 (NCATS, 2017)

Screen: 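Genes whose loss raises luciferase production in HEK293 cells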 (primary screen)
Cell system: human HEK293 embryonic kidney cells stably expressing firefly luciferase (HEK-CMV-Luc2-Hygro)
Reagents: single siRNA against human genes, 0.8 pmol siRNA per well
Duration: 72 h
Detection: 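Reporter luminescence and viable-cell signal on separate replicate plates, given as percent of non-targeting control and median/MAD z-scores, plus per-cell luciferase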
Direction: total luciferase, z-score: higher = more reporter protein produced
Rule for the call: 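An siRNA counts as active if its total luciferase robust z-score exceeds 3; genes with two or more such siRNAs out of three were retested with fresh siRNAs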
Calls: active = raised luciferase; inactive = no rise
The whole screen tested about 59,000 reagents; this is a part drawn at random. Over the whole deposit, about 1,510 (2.6%) are marked active. 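Calls use total luciferase alone and ignore viability, so some active siRNAs may act by altering cell number.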 The numbers tell different reagents against one gene apart. Not all columns of the deposit are shown.

For DPEP2 (dipeptidase 2) #1, what was measured?
total luciferase, z-score: 0.15; activity call: inactive

With DPEP2 (dipeptidase 2) #2, what does the deposit list?
total luciferase, z-score: -2.56; activity call: inactive

With DPEP2 (dipeptidase 2) #3, what does the deposit list?
total luciferase, z-score: -1.06; activity call: inactive

For PCDHB1 (protocadherin beta 1) #1, how do the results read?
total luciferase, z-score: 3.57; activity call: active

For PCDHB1 (protocadherin beta 1) #2, what does the deposit list?
total luciferase, z-score: 0.816; activity call: inactive

With PCDHB1 (protocadherin beta 1) #3, how do the results read?
total luciferase, z-score: -0.135; activity call: inactive

Which result is listed for LRRTM2 (leucine rich repeat transmembrane neuronal 2) #1?
total luciferase, z-score: -0.0841; activity call: inactive

With LRRTM2 (leucine rich repeat transmembrane neuronal 2) #2, what does the deposit list?
total luciferase, z-score: -0.544; activity call: inactive

For LRRTM2 (leucine rich repeat transmembrane neuronal 2) #3, what was measured?
total luciferase, z-score: -0.497; activity call: inactive

What is on record for BCL10-AS1 (BCL10 antisense RNA 1) #1?
total luciferase, z-score: 0.306; activity call: inactive

How did the screen score BCL10-AS1 (BCL10 antisense RNA 1) #2?
total luciferase, z-score: -0.429; activity call: inactive

What is on record for BCL10-AS1 (BCL10 antisense RNA 1) #3?
total luciferase, z-score: 0.619; activity call: inactive

Laid out differently: 2 of the entries above.
BCL10-AS1 (BCL10 antisense RNA 1) #2
- total luciferase, z-score: -0.429
- activity call: inactive

BCL10-AS1 (BCL10 antisense RNA 1) #3
- total luciferase, z-score: 0.619
- activity call: inactive
